Patent US20210079096A1
Results are given in words; binding and its absence hold for the method and conditions named. Some binding calls cover weakened binding; strength is not graded here.

B1: M6 (antibody, V domains shown)
VH: QVTLKESGPGILQPSQTLSLTCSFSGFSLSTYGLGVGWIRQPSGKGLDWLANIWWNDDKYYNSALKSRLTISKDTSNNQVFLKISSVDTADTGTYYCAQVDGYYWYFDVWGAGTTVTVSS
VL: DVLMTQTPLSLPVSLGDQASISCRSSQSIVHSNRNTYLEWYLQKPGQSPKLLIYNVSNRFSGVPDRFSGSGSGTDFTLKISRVEAEDLGVYYCFQGSHVPLTFGAGTKLELK
B2: M11 (antibody, V domains shown)
VH: QVTLKESGPGILQPSQTLSLTCSLSGFSLSTYGLGVGWIRQPSGKGLGWLANIWWNDDKYYNSALKSRLTISKDTSNNQVFLKISSVDTADTGTYYCAQVDGYYWYFDVWGAGTTVTVSS
VL: DVLMTQTPLSLPVSLGDQASISCRSSQSIVHSNRNTYLEWYLQKPGQSPKLLIYNVSNRFSGVPDRFSGSGSGTDFTLKISRVEAEDLGVYYCFQGSHVPLTFGAGTKLELK
B3: M15 (antibody, V domains shown)
VH: QVTLKESGPGILQSSQTLSLTCSFSGFSLSTYGLGVGWIRQPSGKGLDWLANIWWNDDKYYNSALKSRLTISKDTSNNQVFLKISSVDTADTGTYYCAQVDGYYWYFDVWGAGTTVTVSS
VL: DVLMTQTPLSLPVSLGDQASISCRSSQSIVHSNRNTYLEWYLQKPGQSPKLLIYNVSNRFSGVPDRFSGSGSGTDFTLKISRVEAEDLGVYYCFQGSHVPLTFGAGTKLELK

biological target: T1, B7-H4 in FFPE sections of an invasive ductal carcinoma breast tumor (UniProt Q7Z7D3); experiment: IHC
T1 sequence (looked up): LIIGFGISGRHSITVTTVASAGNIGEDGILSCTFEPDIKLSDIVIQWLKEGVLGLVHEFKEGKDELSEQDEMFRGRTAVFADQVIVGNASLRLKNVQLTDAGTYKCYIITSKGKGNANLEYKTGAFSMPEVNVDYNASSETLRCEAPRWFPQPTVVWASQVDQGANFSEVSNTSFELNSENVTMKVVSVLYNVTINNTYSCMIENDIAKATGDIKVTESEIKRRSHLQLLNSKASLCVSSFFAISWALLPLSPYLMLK

Question: For B1, which binding is on record?
Answer: Its binding is “binds”.

Question: B2 was tested. Which binding did it give?
Answer: Its binding is “binds”.

Question: How did the binding turn out when B3 was run?
Answer: The binding was “binds”.
